# Measurements taken from PubChem BioAssay.
# Protein sequences, listed by entry. Tags and fused reporters are not part of them. Lines headed by an entry give the natural chain unless they say otherwise; changes in a name come on top.
# UniProt Q9H2X9: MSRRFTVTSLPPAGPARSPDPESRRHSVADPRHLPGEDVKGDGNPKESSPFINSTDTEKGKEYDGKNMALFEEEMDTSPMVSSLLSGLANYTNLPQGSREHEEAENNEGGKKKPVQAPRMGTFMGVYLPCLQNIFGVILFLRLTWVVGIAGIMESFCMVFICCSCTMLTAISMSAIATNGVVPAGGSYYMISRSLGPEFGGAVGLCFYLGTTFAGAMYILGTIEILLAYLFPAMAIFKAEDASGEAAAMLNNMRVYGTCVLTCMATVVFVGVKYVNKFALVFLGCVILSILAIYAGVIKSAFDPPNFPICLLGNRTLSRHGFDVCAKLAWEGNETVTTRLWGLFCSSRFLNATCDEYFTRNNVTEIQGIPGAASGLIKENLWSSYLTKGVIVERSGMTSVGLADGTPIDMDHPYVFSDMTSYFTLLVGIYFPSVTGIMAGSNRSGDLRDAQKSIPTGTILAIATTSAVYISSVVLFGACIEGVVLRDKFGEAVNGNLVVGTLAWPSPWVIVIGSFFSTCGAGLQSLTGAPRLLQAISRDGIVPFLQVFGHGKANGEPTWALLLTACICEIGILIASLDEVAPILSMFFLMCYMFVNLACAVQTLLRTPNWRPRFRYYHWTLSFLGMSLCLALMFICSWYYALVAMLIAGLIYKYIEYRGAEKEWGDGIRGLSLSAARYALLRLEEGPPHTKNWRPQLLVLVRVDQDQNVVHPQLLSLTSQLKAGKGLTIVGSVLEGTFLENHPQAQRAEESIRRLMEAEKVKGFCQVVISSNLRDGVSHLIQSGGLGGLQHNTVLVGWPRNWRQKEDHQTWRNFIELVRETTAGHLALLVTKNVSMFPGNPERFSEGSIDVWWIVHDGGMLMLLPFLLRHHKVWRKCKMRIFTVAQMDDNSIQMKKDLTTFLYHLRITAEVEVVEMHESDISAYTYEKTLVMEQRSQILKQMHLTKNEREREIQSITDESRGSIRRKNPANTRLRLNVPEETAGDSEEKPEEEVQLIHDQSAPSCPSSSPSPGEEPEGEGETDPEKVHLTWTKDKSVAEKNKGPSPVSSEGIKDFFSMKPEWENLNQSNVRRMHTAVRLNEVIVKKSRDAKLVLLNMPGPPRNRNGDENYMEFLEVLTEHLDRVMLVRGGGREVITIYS
# Inconclusive results, whose numbers are uncertain, are shown with a selection of clear calls. Active and inactive are the calls of the source.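 The calls were made as follows, unless noted: active = thallium flux slope beyond 3 SD from same-plate DMSO control mean in most replicates, usually higher, sometimes lower; inconclusive = repeat tests gave conflicting results; inactive = no significant difference from controls in most replicates.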 Peptide text beside a SMILES is read from it.
# Experiments:
# [1] = biological target: Solute carrier family 12 member 5 (Homo sapiens) (UniProt Q9H2X9); experiment: retest of KCC2 transport modulators without sodium – cell-based, HEK293 KCC2, thallium flux, secondary assay, confirmation (AID 1713;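 active = thallium flux slope above the same plate's solvent-only control mean plus 3 SD; inconclusive = the two replicate wells disagree; inactive = no significant difference from solvent-only control wells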); conditions: FluoZin2 fluorescence, at 10 µM, hits give high values
# Procedure, shortened: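 Test system: KCC2-expressing HEK cells. Medium: Sodium-free N-methylglucamine chloride buffer. Schedule: dye loading 48 min. Technique: kinetic thallium-flux fluorescence imaging.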
# [2] = compound effects on native HEK Tl+ uptake – HEK cells, counterscreen 1, counter-screen for KCC2 modulator project, confirmation (AID 1716;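 active = thallium flux rate significantly above the same plate's solvent-only control wells, beyond their mean plus 3 SD; inconclusive = the two replicate wells gave conflicting results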); conditions: HEK293 parental cells, thallium flux FluoZin2, ouabain; at 10 µM; baseline-ratio fluorescence slope, 10–20 s after thallium
# [3] = biological target: Solute carrier family 12 member 5 (Homo sapiens) (UniProt Q9H2X9); experiment: modulation of KCC2 thallium flux in HEK cells – cell-based, ouabain, retest, confirmation (AID 1717); conditions: HEK293-KCC2, thallium flux FluoZin2 fluorescence, at 10 µM, bidirectional: low = inhibitor, high = activator;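 also: slope of initial-normalized fluorescence between seconds 10 and 20 after thallium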
# [4] = biological target: Solute carrier family 12 member 5 (Homo sapiens) (UniProt Q9H2X9); experiment: retest of KCC2 transport modulation, ouabain-free – cell-based, HEK293 KCC2, thallium flux, FluoZin2, secondary assay 2, confirmation (AID 1715;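 active = thallium flux slope more than 3 SD above or below the plate's solvent-only control mean, mostly below; inconclusive = the two repeat wells disagreed; inactive = no significant shift from solvent-only controls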;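 also: raw slope with 0.1% DMSO as baseline and bumetanide as block control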); conditions: HEK293-KCC2, thallium flux FluoZin2 fluorescence; at 10 µM; actives lie on both sides
# [5] = native HEK Tl+ uptake effects, second counter-screen – HEK cells, counterscreen 2, counter-screen for KCC2 modulator project, confirmation (AID 1718;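 active = thallium flux slope above the same plate's solvent-control mean plus 3 SD in both duplicate wells; inconclusive = duplicate wells that disagreed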;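 also: run without ouabain in cells lacking the KCC2 cotransporter; slope of fluorescence scaled to its starting value between 10 and 20 s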); conditions: HEK293 parental, thallium flux FluoZin-2 fluorescence slope; at 10 µM
# Procedure, shortened: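 Read-out: thallium influx rate; assay system: parental HEK cells; replication: slope calculated separately for each replicate well; signal: FluoZin2-AM fluorescence (0.5 µM), ex 480 nm, em 540 nm, kinetic 1 Hz; benchmarks: bumetanide 2 mM; schedule: overnight cell culture at 37 °C, 48 min dye loading, compound before thallium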
# [6] = FluoZin2 fluorescence counter-screen of MLSMR hits on KCC2-expressing cells (AID 1714;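 active = thallium entry rate above the same plate's blocked-transporter control wells by more than 3 SD; inconclusive = the two repeat wells disagree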;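 also: raw slope of fluorescence over initial fluorescence between 10 and 20 s after thallium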); conditions: HEK293-KCC2 + bumetanide/ouabain, at 10 µM, hits give high values
# Procedure, shortened: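 Test system – KCC2-expressing HEK cells · Medium – HBSS-HEPES with ouabain and bumetanide · Reagent – thallium stimulus · Dosing – 10 µM single dose · Times – 48 min dye loading · Technique – kinetic FluoZin2 fluorescence, ex 480/em 540 nm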
# [7] = inhibitors of TNFa-induced NFkB p65 translocation, primary screen, imaging, HUVEC, MLSMR starter and 10KST1 sets (AID 438;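 active = inhibition above 20% together with a positive visual image hit; inconclusive = visual image hit but inhibition not above 20%; inactive = no visual image hit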;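 also: compound added about 3h40 before a 20 min TNFalpha stimulation; signal is the nuclear over cytoplasmic p65 intensity ratio per well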); conditions: HUVEC TNFa-induced p65 nuclear translocation, at 2 µM, hits give high values; 0% TNFa-plus-vehicle, 100% no-TNFa wells unless noted
compound,measurement,setting,value
O=c1c(C=NCc2cccs2)c(O)n(C2CCCCC2)c(=O)n1C1CCCCC1,normalised thallium flux (F/F0 slope),[1],inconclusive: 0.00509
same,thallium flux rate (normalised fluorescence),[2],inactive: 0.00719
same,"raw Tl+ flux slope (below DMSO = inhibition, above = activation)",[3],inactive: 0.0195
O=C1NC(=O)C2(Cc3c(nc4ccccn4c3=O)N3CCCCCC32)C(=O)N1Cc1ccccc1 (centres undefined),normalized thallium flux,[4],inconclusive: 0.0258
same,thallium flux slope,[5],inactive: 0.0085
O=c1[nH]c(O)c(N=Nc2cc([N+](=O)[O-])ccc2O)c(=O)[nH]1,normalized thallium flux,[6],inconclusive: 0.00572
same,thallium flux slope,[5],inactive: 0.0117
CCCCNC(=O)Nc1ccc(C(O)(C(=O)OCC)C(F)(F)F)cc1 (centres undefined),normalised thallium flux (F/F0 slope),[1],inactive: 0.00782
same,thallium flux rate (normalised fluorescence),[2],inconclusive: 0.0086
same,"raw Tl+ flux slope (below DMSO = inhibition, above = activation)",[3],inactive: 0.0221
same,thallium flux slope,[5],inactive: 0.00988
COc1cc(/C=C/C(=O)c2c(O)n(CCc3ccccc3)c(=O)[nH]c2=O)ccc1O,normalised thallium flux (F/F0 slope),[1],inconclusive: 0.00479
same,"raw Tl+ flux slope (below DMSO = inhibition, above = activation)",[3],active: 0.00397
same,thallium flux slope,[5],inconclusive: 0.00969
COc1cc(C(=S)N2CCOCC2)cc(OC)c1OC(=O)Cc1ccccc1,normalised thallium flux (F/F0 slope),[1],inconclusive: 0.0196
same,normalized thallium flux,[4],active: 0.0205
O=c1[nH]c(=S)n(Cc2ccco2)c(O)c1C=NCc1cccs1,normalized thallium flux,[6],inactive: 0.00663
same,normalized thallium flux,[4],inconclusive: 0.0297
same,thallium flux rate (normalised fluorescence),[2],inactive: 0.00805
same,"raw Tl+ flux slope (below DMSO = inhibition, above = activation)",[3],active: 0.0198
Nc1ccccc1C(=O)OCC(=O)N1CCc2ccccc21,normalized thallium flux,[6],inconclusive: 0.00711
same,thallium flux rate (normalised fluorescence),[2],inconclusive: 0.00848
CC(C)C[C@H](NC(=O)[C@@H]1CCCN1C(=O)[C@@H](N)Cc1ccc(O)cc1)C(=O)NCC(N)=O (H-YPLG-NH2),normalised thallium flux (F/F0 slope),[1],inconclusive: 0.00548
same,thallium flux rate (normalised fluorescence),[2],inconclusive: 0.00871
O=c1[nH]c(=S)[nH]c(O)c1N=Nc1ccc(SC(F)F)cc1,normalised thallium flux (F/F0 slope),[1],inactive: 0.00801
same,normalized thallium flux,[4],inconclusive: 0.0403
same,"raw Tl+ flux slope (below DMSO = inhibition, above = activation)",[3],active: 0.0874
COc1cc2c(cc1OC)-c1c(OC)c(OC)cc3c1[C@H](C2)[N+](C)(C)CC3,normalized thallium flux,[6],inconclusive: 0.0053
same,"raw Tl+ flux slope (below DMSO = inhibition, above = activation)",[3],inactive: 0.0183
O=C(COc1ccc2ccccc2c1)N1CCN(C2CCN(Cc3ccccc3)CC2)CC1,inhibition,[7],inconclusive: 9.5%
CCN(CC)CCCN=Cc1c(O)n(CCc2ccc(OC)c(OC)c2)c(=O)[nH]c1=O,thallium flux rate (normalised fluorescence),[2],inconclusive: 0.00836
same,thallium flux slope,[5],inconclusive: 0.0113
CNc1ccc2oc(C[C@H]3O[C@@]4(CC[C@H]3C)O[C@H]([C@H](C)C(=O)c3ccc[nH]3)[C@H](C)C[C@H]4C)nc2c1C(=O)O,thallium flux rate (normalised fluorescence),[2],inconclusive: 0.00912
same,"raw Tl+ flux slope (below DMSO = inhibition, above = activation)",[3],inconclusive: 0.0238
CC(C)c1oc(=O)cc2c1[C@@H](O)[C@H]1OC(=O)[C@@]3(C)C[C@@H](O)[C@@H](O)[C@@]2(C)C13 (some centres undefined),normalised thallium flux (F/F0 slope),[1],inactive: 0.00963
same,thallium flux rate (normalised fluorescence),[2],inconclusive: 0.00754
same,"raw Tl+ flux slope (below DMSO = inhibition, above = activation)",[3],inactive: 0.0211
O=C(COc1ccc(Cl)cc1)N1CCN(Cc2ccccc2)CC1,normalised thallium flux (F/F0 slope),[1],inconclusive: 0.00686
O=C1C2CCCN2C(c2cccnc2)N1c1nccs1 (centres undefined),normalised thallium flux (F/F0 slope),[1],inactive: 0.0158
same,normalized thallium flux,[6],inconclusive: 0.00665
same,thallium flux rate (normalised fluorescence),[2],inactive: 0.00745
same,"raw Tl+ flux slope (below DMSO = inhibition, above = activation)",[3],inactive: 0.016
COC(=O)c1ccc(COc2cc(C)cc3oc(=O)c4c(c23)CCCC4)o1,"raw Tl+ flux slope (below DMSO = inhibition, above = activation)",[3],inconclusive: 0.0179
CCCC(=O)OCC[N+](C)(C)C,normalised thallium flux (F/F0 slope),[1],inconclusive: 0.0104
Cc1nc2cc(C(F)(F)F)ccc2n1C1CCN(Cc2nnnn2Cc2ccc3c(c2)OCO3)CC1,normalised thallium flux (F/F0 slope),[1],inactive: 0.0049
same,normalized thallium flux,[6],inactive: 0.00517
same,normalized thallium flux,[4],inconclusive: 0.0272
same,"raw Tl+ flux slope (below DMSO = inhibition, above = activation)",[3],inconclusive: 0.0169
same,thallium flux slope,[5],inactive: 0.0112
COc1cccc(-c2nc(CS(=O)CC(=O)N3CCC4(CC3)OCCO4)c(C)o2)c1 (centres undefined),normalized thallium flux,[4],inconclusive: 0.0254
same,"raw Tl+ flux slope (below DMSO = inhibition, above = activation)",[3],inactive: 0.0175
O=C(c1cc2c(s1)-c1ccccc1OC2)N1CCC2(CC1)OCCO2,normalized thallium flux,[4],active: 0.026
same,"raw Tl+ flux slope (below DMSO = inhibition, above = activation)",[3],inconclusive: 0.0177
CCCCCCn1c(O)c(C=NC2CCN(Cc3ccccc3)CC2)c(=O)[nH]c1=O,normalized thallium flux,[4],inconclusive: 0.0261
same,"raw Tl+ flux slope (below DMSO = inhibition, above = activation)",[3],inactive: 0.0154
CNc1cc(Cl)c2nonc2c1[N+](=O)[O-],normalized thallium flux,[4],inconclusive: 0.0268
same,"raw Tl+ flux slope (below DMSO = inhibition, above = activation)",[3],inactive: 0.0172
O=C1NC(=O)C(=Cc2coc3ccccc3c2=O)C(=O)N1,normalised thallium flux (F/F0 slope),[1],inactive: 0.00584
same,normalized thallium flux,[6],active: 0.00577
same,normalized thallium flux,[4],inconclusive: 0.0265
O=c1[nH]c(=S)[nH]c(O)c1N=Nc1ccc(OC(F)F)cc1,normalised thallium flux (F/F0 slope),[1],inconclusive: 0.0111
same,normalized thallium flux,[4],inactive: 0.0353
same,thallium flux slope,[5],inactive: 0.0111
CN1CCN(Cc2nc3ccccc3n2C)CC1,normalized thallium flux,[4],inconclusive: 0.0275
same,thallium flux rate (normalised fluorescence),[2],inactive: 0.00788
same,"raw Tl+ flux slope (below DMSO = inhibition, above = activation)",[3],inconclusive: 0.0175
C[C@H]1CCC/C=C/C2C[C@H](O)CC2[C@H](O)/C=C/C(=O)O1 (some centres undefined),inhibition,[7],active: 83.2% [setting not given]
O=C1N(CN2CCOCC2)c2ccccc2C1(O)c1c[nH]c2ccccc12 (centres undefined),normalized thallium flux,[6],inconclusive: 0.00769
same,thallium flux slope,[5],inactive: 0.0105

# Part of the list above, reformatted.
compound | measurement | setting | value
Cc1nc2cc(C(F)(F)F)ccc2n1C1CCN(Cc2nnnn2Cc2ccc3c(c2)OCO3)CC1 | raw Tl+ flux slope (below DMSO = inhibition, above = activation) | [3] | inconclusive: 0.0169
CNc1cc(Cl)c2nonc2c1[N+](=O)[O-] | normalized thallium flux | [4] | inconclusive: 0.0268
